Results taken from doi:10.1101/2021.03.24.436811.

Biological target: T1, 3HA-FBW2 (3x HA epitope at the N-terminus of the F-box protein FBW2) (Arabidopsis thaliana) (UniProt Q9ZPE4)
T1 sequence: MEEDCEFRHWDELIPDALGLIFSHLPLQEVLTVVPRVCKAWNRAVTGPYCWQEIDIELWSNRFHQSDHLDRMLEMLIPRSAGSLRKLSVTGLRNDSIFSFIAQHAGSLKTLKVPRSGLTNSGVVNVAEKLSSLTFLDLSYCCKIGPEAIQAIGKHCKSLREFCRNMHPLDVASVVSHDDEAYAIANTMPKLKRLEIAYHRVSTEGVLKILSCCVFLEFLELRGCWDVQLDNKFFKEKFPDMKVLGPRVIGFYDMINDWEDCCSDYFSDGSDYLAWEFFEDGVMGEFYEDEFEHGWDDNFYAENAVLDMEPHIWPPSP
Assay: co-IP

- binding: binds
Substance: RBX1, endogenous

Results are given in words; binding and its absence hold for the method and conditions named. Binding seen in cells or lysates may run through a third protein. Binding can be weak; no strength is given. Sequences can lack the tags named with a protein.
